Experimental findings from patent US8969026B2, “Polymeric reverse micelles as selective extraction agents and related methods of MALDI-MS analysis” (University of Massachusetts, priority 2007, dated 2015) are described below.

Some entries repeat one wording, which the source may state once for all of them.

The nature of the series: Inverse micelle (polymer 1) extraction of a myoglobin tryptic digest at pH 7.1, MALDI-MS. It is filed as physicochemical. An excerpt: All of the peptides with pI values above 7.1 are extracted effectively, and with only one exception, peptides with pI values below 7.1 are not extracted effectively. Among the peptide fragments tested, the only exception is the peptide N140-G153 (m/z 1553), a peptide fragment that has a pI below 7.1 and still has K>1. […] One of two reasons could explain the observed results: First, because the pH of the solution is so close to the pI of this peptide, a significant fraction of the peptide is positively-charged at pH 7.1 and therefore extracted. Alternatively, the theoretically calculated pI value may be low.
A typical biphasic extraction procedure involves mixing 200 μL of a toluene solution of homopolymer 1 or 2 (1×10^−4 M) with 1 mL of an aqueous solution of peptide(s) that was buffered to pH ˜7.0 with 50 mM Tris/TrisHCl. The mixture is vortexed for 10 to 120 minutes and centrifuged at 12000 rpm for 30-40 minutes to break the resulting emulsion and separate the organic and aqueous layers. The top (organic) layer is then recovered and dried to obtain a solid residue. The residue is redissolved into 10 μL of THF and sonicated for 10 seconds to promote solubilization. Finally, 20 μL of an α-CHCA matrix solution (0.16 Min 60:40:0.3% THF:H2O:TFA) are added to the sample for a final volume of 30 μL. For MALDI-MS analysis the samples are applied to the target using the dried-droplet method, where 1 μL of the sample/matrix mixture is spotted on a stainless-steel target, and the solvent is evaporated at room temperature. The residual aqueous phase (˜1 mL) after extraction is also examined by MALDI-MS. […]
Extraction of the myoglobin digest was done in a manner similar to described above. 1 mL aliquots of a 1×10^−6 M protein digest were buffered at pH 7.1 with 50 mM TRIS, mixed with 200 μL of a toluene solution of homopolymer 1 (1×10^−4 M), extracted, and analyzed by MALDI-MS as detailed above. […]
Take “ALELFRNDIAAKYK (ALELFRNDLAAKYK; listed as Equus caballus) [tryptic fragment of equine myoglobin]”: the “detection of the fragment in the organic phase after extraction versus the original digest” value is “after extraction they are readily observable”.

Take “HGTVVLTALGGILKKK (listed as Equus caballus) [tryptic fragment of equine myoglobin]”: the “detection of the fragment in the organic phase after extraction versus the original digest” value is reported as “after extraction they are readily observable”.

Take “KHGTVVLTALGGILKK (listed as Equus caballus) [tryptic fragment of equine myoglobin]”: the “detection of the fragment in the organic phase after extraction versus the original digest” value is “after extraction they are readily observable”.
